PubChem BioAssay AID1259314 – Drosophila RNAi Screening Center – 2017
The whole screen tested about 3,100 reagents; this is a random part of them. Of all reagents, 289 (9.3%) are marked active. 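Active includes both higher and lower ATP than plate average; check the z-score sign for direction.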 Unmarked entries are inactive. Reagents against one gene are numbered here. Names joined by + are all predicted targets of the reagent. No sequences are given here. Not given: the amount of reagent.

- Assay: 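Genes whose knock-down alters cell survival under toxic manganese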 (primary screen)
- Cell system: Drosophila S2R+ cells
- Knock-down reagent: long dsRNA against Drosophila genes
- Duration: 5 days (4 days knock-down, then 1 day metal exposure)
- Challenge: manganese chloride added to 15 mM for 24 hours
- Measurement: 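Luciferase ATP signal used as a proxy for viable cell number, reported as one averaged z-score per dsRNA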
- Scale: mean ATP z-score: higher = more ATP than the plate average, more viable cells under manganese
- Rule for the call: 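a mean ATP z-score past 1.5 in either direction is called active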
- Calls: active = strong ATP change, up or down; inactive = no strong ATP change

mean ATP z-score, by gene and reagent
Mrp4: #1 0.18; #2 -0.335
Irk3: #1 0.902
Vamp7: #1 0.222
SLC22A: #1 0.147; #2 -0.641
CG6901: #1 -0.61; #2 0.114
Ir100a: #1 0.356; #2 1.32
CG8534: #1 1.27
CG1572: #1 1.26
CG6484: #1 -0.167; #2 -0.463
brv3: #1 -0.49
CG9743: #1 0.507; #2 2.03 (active)
T48: #1 0.451
Gr66a: #1 -0.92; #2 0.746
TyrR: #1 0.112; #2 -0.179
FucT6: #1 0.53; #2 -0.403
CG6126: #1 -0.654; #2 -0.649
Adgf-A2: #1 0.467; #2 -0.448
Mdr49: #1 -0.791; #2 0.878
CG8785: #1 1.25
CG33958: #1 0.168; #2 1.06; #3 0.00779
CG4313: #1 0.504; #2 -1.34
Nemp: #1 -2.04 (active); #2 -1.55 (active)
rho-5: #1 0.0702; #2 1.47
CG10481: #1 -0.768; #2 0.41
Or88a: #1 0.448; #2 -0.693
CG9459: #1 2.64 (active); #2 2.09 (active)
Rdl: #1 0.333; #2 -1.76 (active)
CG2991: #1 0.359; #2 -0.816
Rift: #1 1.27
rpk: #1 0.13
mthl10: #1 1.4; #2 -0.285; #3 -0.189
CG6749: #1 -1.17; #2 -1
CG10165: #1 -0.562
Ir94b: #1 0.0666
CG7881: #1 -0.269; #2 -0.495
CG42288: #1 0.259
CG1636 + CG15343: #1 1.92 (active)
COX4: #1 0.146; #2 -3.29 (active)
ABCB7: #1 1.67 (active)
Tsp42A: #1 -0.837; #2 -1.07
Afg3l2: #1 -1.63 (active); #2 -1.48
PGRP-LA: #1 -0.544; #2 -0.493
OtopLb: #1 -0.856; #2 -0.89
hbs: #1 -0.249; #2 -0.945
Orco: #1 0.139; #2 1.04
CG33110: #1 -0.47; #2 1.33
CG7218: #1 0.197; #2 1.85 (active)
Cngl: #1 0.861; #2 -0.881
rho-7: #1 0.904
GPHR: #1 -0.193; #2 0.743
ppk: #1 -0.457; #2 -0.713
CG11566 (retired record) + stg1: #1 0.555; #2 0.994
prt: #1 -0.685; #2 -0.641
Ork1: #1 -1.22; #2 -0.968
CCKLR-17D3: #1 -0.351; #2 1.52 (active)
spict: #1 -1.1; #2 -0.98
sax: #1 0.105; #2 -0.262; #3 -0.135
GluRIIC: #1 0.342
mdy: #1 0.524; #2 0.54
CG5002: #1 2.08 (active)
Ekar: #1 0.715; #2 0.322
Tsp42Ek: #1 0.698; #2 0.918

Laid out differently: 5 of the entries above.
gene,reagent no.,mean ATP z-score
CG5002,1,2.08 (active)
Ekar,1,0.715
Ekar,2,0.322
Tsp42Ek,1,0.698
Tsp42Ek,2,0.918
